# Primary screen of a compound library

By UniProt entry, the sequences of proteins in these tests, tags left out. Residues count along the entry.
UniProt A4I591, 1-473: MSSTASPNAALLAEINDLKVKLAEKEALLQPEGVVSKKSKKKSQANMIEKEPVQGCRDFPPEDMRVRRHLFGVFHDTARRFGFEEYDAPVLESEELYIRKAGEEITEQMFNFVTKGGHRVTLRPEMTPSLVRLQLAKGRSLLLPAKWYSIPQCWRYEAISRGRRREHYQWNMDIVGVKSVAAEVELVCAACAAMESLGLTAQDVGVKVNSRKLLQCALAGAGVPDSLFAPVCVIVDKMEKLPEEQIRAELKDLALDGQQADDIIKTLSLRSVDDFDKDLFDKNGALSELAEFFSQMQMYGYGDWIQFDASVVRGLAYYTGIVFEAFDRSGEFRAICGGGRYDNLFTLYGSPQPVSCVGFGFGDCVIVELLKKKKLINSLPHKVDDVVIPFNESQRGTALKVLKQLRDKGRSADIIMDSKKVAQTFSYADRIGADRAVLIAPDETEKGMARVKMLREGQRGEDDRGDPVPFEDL

The values are deposited in ChEMBL (CHEMBL3988442, “University of Dundee, Small-Polar-MMV Screening Library” (2021)).

Toxoplasma: 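Assay of Toxoplasma gondii numbers, read through their beta-galactosidase reporter with a colour substrate. Tested at 10 µM. The record gives no direction; the compounds picked for IC50 retests had high values, so higher reads as fewer parasites. Size under these conditions: about 67,000 compounds, about 260 of them at 50% or above in at least one test.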
LiHisRS: 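Histidine-tRNA ligase, Leishmania infantum (UniProt A4I591). Enzyme assay of histidyl-tRNA synthetase; the read-out is not stated. Tested at 30 µM. The record gives no direction; compounds that gave an IC50 in retests scored well above the rest, so higher reads as stronger inhibition. The assay is labelled LdHisRS but filed under L. infantum. About 69,000 compounds were tested under these conditions; 0.6% (about 410) showed 50% or more at least once.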

Values are the deposited “Percent Effect”, in %. How 0% and 100% were set is not recorded. Most values in the screen are low, and negative values occur. This is an unselected part of the compounds tested. A dash means the value is not listed here; it may have been measured.

| # | Compound | Toxoplasma | LiHisRS |
|---|---|---|---|
| 1 | `COCC1c2nnn(C)c2CCN1C(=O)CCc1cccc(OC)c1` (centres undefined) | 14.03% | -8.108% |
| 2 | `CN(C)c1nc2c(c(=O)[nH]1)CCN(C(=O)c1ccc(=O)[nH]c1)C2` | -8.114% | -35.9% |
| 3 | `CN1CCC2(CC1)CN(CC1CC1)CC21CCNC1=O` (centres undefined) | - | 11.65% |
| 4 | `O=C(NCc1nncn1C1CC1)c1ccc(F)c(COCC2CC2)c1` | 7.436% | 15.52% |
| 5 | `NS(=O)(=O)CCNC(=O)c1cc(Br)c2c(c1)OCCO2` | - | 16.13% |
| 6 | `Fc1ccc(CN2CCCn3nnc(COCC4CC4)c3C2)cc1` | - | 15% |
| 7 | `Cc1ccc(OC2(C(=O)O)CCN(C/C=C/c3ccco3)CC2)cn1` | -0.05797% | 16.39% |
| 8 | `CCN(C)Cc1cccc(CNC(=O)CSCc2ccccn2)c1` | 14.52% | 3.529% |
| 9 | `CC(C)(C#N)c1ccccc1CN1CCC(N2CCCC2=O)CC1` | -3.409% | 15.32% |
| 10 | `CN(Cc1cnn(C)c1)C1CCCN(Cc2noc(C3CC3)n2)C1` (centres undefined) | 9.636% | 12.35% |
| 11 | `COc1cc(N2CCC3(CCN(C(=O)c4cccnc4)CC3)C2)ncn1` | - | 15.79% |
| 12 | `O=C(Nc1cn[nH]c1)N(CCO)C1CCc2ccccc21` (centres undefined) | -3.137% | 5% |
| 13 | `O=C1[C@H]2CN(Cc3ccoc3)C[C@H]2CN1CCN1CCCC1` | - | 0% |
| 14 | `O=C(Cc1c(F)cccc1Cl)NC1CCCCNC1=O` (centres undefined) | -8.239% | 10.62% |
| 15 | `O=C(c1cc(F)cc(Cl)c1)N1C[C@@H]2CC[C@H](C1)N(Cc1ccccc1)C2` | - | 37.23% |
| 16 | `CCOCC1CN(S(C)(=O)=O)Cc2cnn(CC3CCOCC3)c21.O=C(O)C(F)(F)F` (centres undefined) | 4.291% | - |
| 17 | `CC(C)N(CCO)C(=O)C1CCC(=O)N(CCc2ccc(Cl)cc2)C1` (centres undefined) | 6.64% | 9.333% |
| 18 | `CS(=O)(=O)NC1CC(=O)N(c2ccccc2Cl)C1` (centres undefined) | 1.458% | 19.1% |
| 19 | `COc1ccc(CN2CCC3(CCCN(c4ncc(F)cn4)C3)C2)cc1` (centres undefined) | - | 11.93% |
| 20 | `CCOc1ccc(N2CCCN=C2NC(=O)c2ccc(OC)cc2)cc1` | 8.148% | 13.79% |
| 21 | `Cc1nonc1CN(C)Cc1cnn(-c2ccc(Cl)cc2)c1` | - | 8.451% |
| 22 | `Cc1ccc(OCCN(C)S(=O)(=O)c2cnn(C)c2)cc1` | 27.68% | 12.39% |
| 23 | `CC(C)c1nc(C2CCCN2CC(=O)Nc2ccc(Cl)cn2)no1` (centres undefined) | -1.891% | 28.38% |
| 24 | `CCC(=O)N1CCCC1c1nc(N(C)C)ncc1-c1ccc(Cl)cc1` (centres undefined) | - | 14.08% |
| 25 | `[H][C@@]12CCN(S(=O)(=O)c3cccnc3)[C@]1([H])CC[C@@H](c1nnc(C)o1)O2` | 0.8069% | - |
| 26 | `Cc1nc(C)c(CC(=O)Nc2nnc(C(C)C)s2)c(=O)[nH]1` | -12.73% | 14.68% |
| 27 | `Cc1cc(NC(=O)CN2CCCC2Cn2nc(C)nc2C)on1` (centres undefined) | 0.4697% | 6.14% |
| 28 | `CC(C)COCC1CN(C(=O)c2cscn2)Cc2ncn(C)c21.O=C(O)C(F)(F)F` (centres undefined) | -3.057% | - |
| 29 | `CC(C)CCCNC(=O)Nc1ccc(C(N)=O)c(Cl)c1` | -4.374% | 8.547% |
| 30 | `CCOC(=O)N1CCC(N2Cc3ncccc3C2=O)CC1` | 6.142% | 14.89% |
| 31 | `O=S(=O)(N1CCOCC1)N1CCCC(c2ccccn2)C1` (centres undefined) | -6.336% | 8.633% |
| 32 | `CCC(C)NC(=O)CS(=O)(=O)Cc1cc(C)ccc1C` (centres undefined) | 2.862% | 8.219% |
| 33 | `CC(=O)N(C)Cc1cccc(NC(=O)N(C)Cc2nccs2)c1` | -47.56% | 9.639% |
| 34 | `CCc1nc(CN2CCCN(C(=O)C3CCC3)CC2)cs1` | 3.928% | 5.66% |
| 35 | `Cc1ccc([C@@]2(O)CC[C@@H]3CN(S(=O)(=O)C(C)C)C[C@@H]32)cc1` | - | -5.263% |
| 36 | `CSCC(=O)N1CCCC(c2cc(C)[nH]n2)C1` (centres undefined) | 0.5561% | -12.84% |
| 37 | `CN(Cc1ncnn1C)C(=O)CCCn1ccc2cc(Cl)ccc21` | 3.481% | 20.63% |
| 38 | `C[C@@H]1CN(C(=O)c2nc3sccn3c2-c2ncc[nH]2)C[C@H](C)O1` | - | 28.26% |
| 39 | `Cc1cccn2c(CNC(C)CCc3ccc(O)cc3)cnc12` (centres undefined) | 1.401% | 11.29% |
| 40 | `Cc1cccc(CN2Cc3[nH]nc(COCCO)c3C2)n1` | - | 7.018% |
| 41 | `Cc1ccc(C)c(OC2CCN(C(=O)CNc3ccccc3Cl)CC2)c1` | -2.126% | 13.04% |
| 42 | `COCCC1COC2(CCN(C(=O)c3ccccc3)CC2)C1` (centres undefined) | -1.356% | 14% |
| 43 | `O=C1NCC(C(=O)Nc2ncc(Cc3ccccc3)s2)N1` (centres undefined) | -1.893% | -3.509% |
| 44 | `CCN1CCCC1CNC(=O)CCSc1ccc2c(c1)OCCO2` (centres undefined) | 2.885% | 12.9% |
| 45 | `COc1cccc(C(C(=O)O)N(C)Cc2ccc(C)o2)c1` (centres undefined) | -2.193% | 8.392% |
| 46 | `CN(C)C(=O)N1CC2(CCNCC2)c2cc(F)ccc21` | - | 17.65% |
| 47 | `CC(N)Cc1ccccc1Sc1ccc(O)cc1.CC(N)Cc1ccccc1Sc1ccc(O)cc1.O=C(O)C(=O)O` (centres undefined) | 5.826% | - |
| 48 | `O=C(O)c1ccc2c(c1)C1(CCCCC1)CN2C(=O)c1ccnnc1` | 1.634% | 11.43% |
| 49 | `Cn1ncc2c1CCCC2NCc1cccc2c1OCCCO2` (centres undefined) | -11.9% | 9.565% |
| 50 | `Cc1ccccc1C(=O)NCc1ccc(N2CCNC(=O)C2)cc1` | -2.424% | 44.23% |
| 51 | `COCCCN1CC2(CCCCN2C(=O)c2ccsc2)CC1=O` (centres undefined) | -4.329% | 4.878% |
| 52 | `COC(=O)[C@@H]1CN(C(=O)c2cscn2)C[C@H]1c1ccc(OC)cc1` | 10.86% | 2.069% |
| 53 | `CC(c1cccc(-c2ccc(C(=O)O)cc2Cl)c1)N(C)C` (centres undefined) | 5.109% | 12.68% |
| 54 | `CC(C)Cn1nc(-c2ccc(C(=O)O)cc2)cc1-c1ccc(F)cc1` | 15.47% | 9.79% |
| 55 | `C=C(C)COc1ccccc1CNCCc1cc(O)nc(C)n1` | 18.59% | 9.836% |
| 56 | `FC(F)(F)c1ccnc(N2CCCCCC2)c1` | 2.596% | 5% |
| 57 | `CS(=O)(=O)NC[C@H]1OC[C@@H]2CN(Cc3cccnc3)CC[C@@H]21` | - | 13.21% |

5 of the entries, repeated:

For Cc1cccn2c(CNC(C)CCc3ccc(O)cc3)cnc12 (centres undefined) the result was Toxoplasma: 1.401%; LiHisRS: 11.29%.
For CC(C)(C#N)c1ccccc1CN1CCC(N2CCCC2=O)CC1 the result was Toxoplasma: -3.409%; LiHisRS: 15.32%.
For CN(C)C(=O)N1CC2(CCNCC2)c2cc(F)ccc21 the result was LiHisRS: 17.65%.
For CCN1CCCC1CNC(=O)CCSc1ccc2c(c1)OCCO2 (centres undefined) the result was Toxoplasma: 2.885%; LiHisRS: 12.9%.
For CC(c1cccc(-c2ccc(C(=O)O)cc2Cl)c1)N(C)C (centres undefined) the result was Toxoplasma: 5.109%; LiHisRS: 12.68%.